{"source": "PubChem BioAssay AID1259254 (NCATS, 2017)", "test": "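Genome-wide screen for genes that prevent DNA re-replication in cancer cells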 (primary screen)", "cells": "human HCT116 colorectal cancer cells", "reagent": "single siRNA against human genes", "timing": "3 days", "measured": "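Imaged Hoechst DNA stain sorts each cell into a cycle phase by DNA amount; per plate, G2 fraction set to 0% for non-targeting and 100% for GMNN siRNA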", "scale": "G2 robust z-score: higher = more G2 cells, more excess DNA replication", "hit rule": "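Active siRNAs have a G2 robust z of 5 or more median absolute deviations over the median, which in these data means about 38% or higher of GMNN control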", "note": "In all, the deposit lists about 59,000 reagents; shown is a part drawn at random. About 1,550 of all reagents (2.6%) count as active. 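G2 share is only a proxy for re-replication; each gene was hit by three separate siRNAs, and active genes were retested.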 Entries without a mark were called inactive. Reagents against one gene are numbered here. Not all columns of the deposit are shown. Not stated in the record: the amount of reagent."}
{"target": "ERMP1 (endoplasmic reticulum metallopeptidase 1)", "siRNA no.": 1, "G2 robust z-score": -0.422}
{"target": "ERMP1 (endoplasmic reticulum metallopeptidase 1)", "siRNA no.": 2, "G2 robust z-score": 2.56}
{"target": "ERMP1 (endoplasmic reticulum metallopeptidase 1)", "siRNA no.": 3, "G2 robust z-score": -0.0393}
{"target": "KLHL18 (kelch like family member 18)", "siRNA no.": 1, "G2 robust z-score": -0.125}
{"target": "KLHL18 (kelch like family member 18)", "siRNA no.": 2, "G2 robust z-score": 1.73}
{"target": "KLHL18 (kelch like family member 18)", "siRNA no.": 3, "G2 robust z-score": 3.63}

Next part (2 carried over from the part before).
{"target": "KLHL18 (kelch like family member 18)", "siRNA no.": 2, "G2 robust z-score": 1.73}
{"target": "KLHL18 (kelch like family member 18)", "siRNA no.": 3, "G2 robust z-score": 3.63}
{"target": "MMS22L (MMS22 like, DNA repair protein)", "siRNA no.": 1, "G2 robust z-score": 1.97}
{"target": "MMS22L (MMS22 like, DNA repair protein)", "siRNA no.": 2, "G2 robust z-score": 0.747}
{"target": "MMS22L (MMS22 like, DNA repair protein)", "siRNA no.": 3, "G2 robust z-score": 0.942}
{"target": "LRRIQ4 (leucine rich repeats and IQ motif containing 4)", "siRNA no.": 1, "G2 robust z-score": 0.633}
{"target": "LRRIQ4 (leucine rich repeats and IQ motif containing 4)", "siRNA no.": 2, "G2 robust z-score": 4.06}
{"target": "LRRIQ4 (leucine rich repeats and IQ motif containing 4)", "siRNA no.": 3, "G2 robust z-score": -0.83}
